Source: US20210156867A1
Results are given in words; binding and its absence hold for the method and conditions named. Some entries that bind do so weakly or less than the wild type.

By UniProt entry, the sequences of proteins in these tests, tags left out. Residues count along the entry.
UniProt P10415, residues 1-211: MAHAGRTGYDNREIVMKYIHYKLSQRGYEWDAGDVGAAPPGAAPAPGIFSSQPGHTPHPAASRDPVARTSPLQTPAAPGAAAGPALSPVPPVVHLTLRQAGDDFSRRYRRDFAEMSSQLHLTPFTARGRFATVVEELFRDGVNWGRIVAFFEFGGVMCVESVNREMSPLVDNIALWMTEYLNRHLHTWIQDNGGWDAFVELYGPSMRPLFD

Tests used:
[1] = target: recombinant human B-cell lymphoma protein 2 alpha His-Tag (Bcl-2) (human) (UniProt P10415); test: fluorescence displacement assay: emission of the His-Bcl-2-compound 5 sensor complex (200 nM) after adding 800 nM Bax BH3 peptide
[2] = target: recombinant human B-cell lymphoma protein 2 alpha His-Tag (Bcl-2) (human) (UniProt P10415); test: fluorescence displacement assay: compounds 1-5 (200 nM), then His-Bcl-2 (200 nM), then Bax-BH3 (legend prints 1.6 mM; paragraph 695 prints 1.6 with an image character before M)
[3] = target: recombinant human B-cell lymphoma protein 2 alpha His-Tag (Bcl-2) (human) (UniProt P10415); test: fluorescence of the His-Bcl-2-sensor 5 complex (sensor displacement)

binding [1]: binds | binding [2]: binds | binding [3]: binds
Binder: STKKLSECLKRIGDELDSNM (peptide, UniProt Q07812 55-74, looked up) [Bax BH3 peptide (55-74) wild type]
